Laboratory results taken from article PMC10272166.
Read-outs that look alike come from different tables or passages of the source. Results are given in words; binding and its absence hold for the method and conditions named. In cells and extracts the contact can be indirect. A yes stands for co-enrichment or nearness to the bait. Other partners may have been found.

Sequences of proteins named here, by UniProt entry; tags and fusion partners are left off. Residues count along the entry.
UniProt P07724, residues 25-608: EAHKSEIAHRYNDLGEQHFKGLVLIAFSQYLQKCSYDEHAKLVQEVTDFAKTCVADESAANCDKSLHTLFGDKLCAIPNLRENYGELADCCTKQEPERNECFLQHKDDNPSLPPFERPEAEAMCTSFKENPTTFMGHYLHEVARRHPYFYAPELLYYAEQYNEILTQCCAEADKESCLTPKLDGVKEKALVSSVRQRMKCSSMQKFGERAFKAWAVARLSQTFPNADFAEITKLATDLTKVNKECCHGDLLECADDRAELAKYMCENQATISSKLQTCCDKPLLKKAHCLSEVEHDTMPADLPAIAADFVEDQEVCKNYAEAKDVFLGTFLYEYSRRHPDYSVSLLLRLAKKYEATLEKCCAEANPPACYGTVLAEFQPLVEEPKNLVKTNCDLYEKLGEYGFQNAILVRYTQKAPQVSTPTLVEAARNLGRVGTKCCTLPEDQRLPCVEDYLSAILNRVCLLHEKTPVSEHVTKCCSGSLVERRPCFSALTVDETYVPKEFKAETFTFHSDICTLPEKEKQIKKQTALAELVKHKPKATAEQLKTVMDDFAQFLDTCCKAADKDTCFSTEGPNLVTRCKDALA
UniProt P97807, residues 42-507: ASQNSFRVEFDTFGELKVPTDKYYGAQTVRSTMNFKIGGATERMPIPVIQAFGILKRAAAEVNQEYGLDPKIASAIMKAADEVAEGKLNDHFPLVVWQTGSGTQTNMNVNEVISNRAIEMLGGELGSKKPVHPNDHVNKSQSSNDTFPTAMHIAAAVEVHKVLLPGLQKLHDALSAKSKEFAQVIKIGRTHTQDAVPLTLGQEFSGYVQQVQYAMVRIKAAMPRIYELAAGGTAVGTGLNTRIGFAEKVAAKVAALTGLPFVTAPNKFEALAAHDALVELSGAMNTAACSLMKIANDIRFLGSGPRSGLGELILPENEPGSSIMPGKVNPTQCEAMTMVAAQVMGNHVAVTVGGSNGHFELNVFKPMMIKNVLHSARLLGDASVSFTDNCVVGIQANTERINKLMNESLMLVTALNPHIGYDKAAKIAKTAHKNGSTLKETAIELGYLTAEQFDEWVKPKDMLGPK

Legend:
[1] = biological target: albumin (mouse liver, endogenous) (mouse (endogenous in mouse liver)) (UniProt P07724); test: affinity purification with mass spectrometry; mouse liver homogenised in RIPA buffer; anti-albumin IgG or isotype control IgG with protein-G agarose, 4 °C; mice fed normal or Western diet for 8 weeks; gel bands analysed by LC-MS/MS
[2] = biological target: albumin (mouse liver, endogenous) (mouse (endogenous in mouse liver)) (UniProt P07724); test: as above; remark: listed apart in the source

Row | binding [1] | binding [2] | Molecule
1 | binds |  | Fh (mouse liver, endogenous) (from UniProt P97807 42-507)
2 |  | binds | carnitine palmitoyltransferase 2 (mouse liver, endogenous) (protein, UniProt P52825 26-658) SAVSGPAEYLQHSIVPTMHYQDSLPRLPIPKLEDTMKRYLSAQKPLLNDSQFRKTEVLCKDFENGIGKELHAHLLAQDKQNKHTSYISGPWFDMYLTARDSVVLNFNPFMAFNPDPKSEYNDQLTRATNLTVSAVRFLKTLRAGLLEPEVFHLNPARSDTDAFKRLIRFVPSSLSWYGAYLVNAYPLDMSQYFRLFNSTRIPKPSRDELFTDTKARHLLVLRKGHFYVFDVLDQDGNIVNPSEIQAHLKYILSDSSPVPEFPLAYLTSENRDVWAELRQKLIHGGNEETLRKVDSAVFCLCLDDFPMKDLVHLSHTMLHGDGTNRWFDKSFNLIVAKDGTAAVHFEHAWGDGVAVLRFFNEVFRDSTQTPAIAPQSQPAATDSSVSVQKLSFKLSSALKAGVTAAKEKFDATMKTLTIDAIQFQRGGKEFLKKKKLSPDAVAQLAFQMAFLRQYGQTVATYESCSTAAFKHGRTETIRPASIFTKRCSEAFVREPSKHSVGELQHMMAECSKYHGQLTKEAAMGQGFDRHLFALRYLAAARGVTLPELYQDPAYQRINHNILSTSTLSSPAVSLGGFAPVVPDGFGIAYAVHDDWIGCNVSSYSGRNAREFLHCVQKCLEDMFDALEGKAIKT
